Laboratory results taken from US20150158938A1 (SNU R AND DB FOUNDATION, published 2015).
No constants are given. Whether binding was seen depends on the method and setting. Some binding calls cover weakened binding; strength is not graded here. Tags and fused reporters may be left off the sequences shown.

Tests used:
BMP-2 (R&D Systems) = target: T1, BMP-2 (R&D Systems) (UniProt P12643); test: enzyme immunoassay, BMP-2 coated at 100 nM, gremlin-1-Fc 10 nM, HRP anti-IgG-Fc
T1 sequence (looked up): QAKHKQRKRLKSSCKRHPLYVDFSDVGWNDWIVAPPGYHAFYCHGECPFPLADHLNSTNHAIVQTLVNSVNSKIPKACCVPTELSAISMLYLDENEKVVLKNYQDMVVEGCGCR

BMP-4 (R&D Systems) = target: T2, BMP-4 (R&D Systems) (UniProt P12644); test: enzyme immunoassay, BMP-4 coated at 100 nM, gremlin-1-Fc 10 nM, HRP anti-IgG-Fc
T2 sequence (looked up): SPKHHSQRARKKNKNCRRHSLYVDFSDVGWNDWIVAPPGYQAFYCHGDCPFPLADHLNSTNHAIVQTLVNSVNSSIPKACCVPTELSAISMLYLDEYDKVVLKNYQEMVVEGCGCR

- binding (BMP-2 (R&D Systems)): binds
- binding (BMP-4 (R&D Systems)): binds
B1: gremlin-1-Fc fusion protein (human gremlin-1 and human IgG1-Fc) (Fc fusion, UniProt O60565 25-184, looked up, not shown: a dimerising Fc or GST)
chain: KKKGSQGAIPPPDKAQHNDSEQTQSPQQPGSRNRGRGQGRGTAMPGEEVLESSQEALHVTERKYLKRDWCKTQPLKQTIHEEGCNSRTIINRFCYGQCNSFYIPRHIRKEEGSFQSCSFCKPKKFTTMMVTLNCPELQPPTKKKRVTRVKQCRCISIDLD
